Laboratory results taken from PMC12332157 (EJNMMI Research, 2025).

Assay: general procedure: Fmoc solid-phase peptide synthesis; Fmoc Rink Amide MBHA resin (loading 0.69 mmol/g); PyBOP/DIPEA
Settings: whole synthesis, scale 15.5 µmol, TFA salt

Substance	isolated mass	isolated yield
Ac-K(NOTA)[X1][dF]QWAVGH[Sta]L-NH2 (SMILES CC(=O)N[C@@H](CCCCNC(=O)CN1CCN(CC(=O)O)CCN(CC(=O)O)CC1)C(=O)NCCc1ccccc1CC(=O)N[C@H](Cc1ccccc1)C(=O)N[C@@H](CCC(N)=O)C(=O)N[C@@H](Cc1c[nH]c2ccccc12)C(=O)N[C@@H](C)C(=O)N[C@H](C(=O)NCC(=O)N[C@@H](Cc1c[nH]cn1)C(=O)N[C@@H](CC(C)C)[C@@H](O)CC(=O)N[C@@H](CC(C)C)C(N)=O)C(C)C)	3.6 mg	12%
Ac-K(NOTA)[X2][dF]QWAVGH[Sta]L-NH2 (SMILES CC(=O)N[C@@H](CCCCNC(=O)CN1CCN(CC(=O)O)CCN(CC(=O)O)CC1)C(=O)NCc1cccc(OCC(=O)N[C@H](Cc2ccccc2)C(=O)N[C@@H](CCC(N)=O)C(=O)N[C@@H](Cc2c[nH]c3ccccc23)C(=O)N[C@@H](C)C(=O)N[C@H](C(=O)NCC(=O)N[C@@H](Cc2c[nH]cn2)C(=O)N[C@@H](CC(C)C)[C@@H](O)CC(=O)N[C@@H](CC(C)C)C(N)=O)C(C)C)c1)	4.3 mg	15%
Ac-K(NOTA)[X3][dF]QWAVGH[Sta]L-NH2 (SMILES CC(=O)N[C@@H](CCCCNC(=O)CN1CCN(CC(=O)O)CCN(CC(=O)O)CC1)C(=O)NCc1ccccc1OCC(=O)N[C@H](Cc1ccccc1)C(=O)N[C@@H](CCC(N)=O)C(=O)N[C@@H](Cc1c[nH]c2ccccc12)C(=O)N[C@@H](C)C(=O)N[C@H](C(=O)NCC(=O)N[C@@H](Cc1c[nH]cn1)C(=O)N[C@@H](CC(C)C)[C@@H](O)CC(=O)N[C@@H](CC(C)C)C(N)=O)C(C)C)	3.9 mg	14%

Starred links: 1 amine or outer side, 2 acyl side, 3 side chain; linkers in the order of their positions; H or OH if unused. Non-standard residues stand in square brackets, D forms with d. *: point of attachment. NOTA = O=C(O)CN1CCN(CC(=O)O)CCN(CC(=O)*)CC1; Sta = CC(C)C[C@H](N)[C@@H](O)CC(=O)O; X2 = O=C(COc1cccc(CN[*:1])c1)[*:2]; X1 = O=C(Cc1ccccc1CCN[*:1])[*:2]; X3 = O=C(COc1ccccc1CN[*:1])[*:2]
